Results are given in words; binding and its absence hold for the method and conditions named. In cells and extracts the contact can be indirect. Some binding calls cover weakened binding; strength is not graded here. Where a sequence is shown, tags or fusion partners need not be part of it.

For this test, the target named is T1, E. coli TatC with C-terminal Twin-Strep tag, expressed from a tatABC plasmid (Escherichia coli) (UniProt P69423).
T1 sequence: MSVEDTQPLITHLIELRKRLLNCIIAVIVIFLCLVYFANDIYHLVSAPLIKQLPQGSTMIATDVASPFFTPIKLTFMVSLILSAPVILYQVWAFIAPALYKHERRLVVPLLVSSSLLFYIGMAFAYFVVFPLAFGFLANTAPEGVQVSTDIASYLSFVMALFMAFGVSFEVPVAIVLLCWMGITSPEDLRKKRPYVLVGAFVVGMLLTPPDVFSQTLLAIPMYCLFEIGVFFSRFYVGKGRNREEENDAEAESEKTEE
Description: pull-down; E. coli TatAHisTatBC_(strep) solubilised in GDN, purified successively by the strep tag on TatC and the His tag on TatA; SDS-PAGE, Coomassie.

B1: E. coli TatA with an inserted ALFA-His tag (natural protein, Escherichia coli, UniProt P69428 1-89, looked up)
chain: MGGISIWQLLIIAVIVVLLFGTKKLGSIGSDLGASIKGFKKAMSDDEPKQDKTSQDADFTAKTIADKQADTNQEQAKTEDAKRHDKEQV
notes: TatA of Escherichia coli; also called TatA_(ALFA); TatA_(ALFA,His); not shown: ALFA, internal (in the cytoplasmic part of TatA), kept
Regarding B1, the binding entry is recorded as “binds”.

The record behind these values is article PMC13323110, “Structure and substrate recognition by the bacterial twin-arginine translocation (Tat) core complex” (Nature Microbiology, 2026).
